Data taken from PubChem BioAssay AID720535 (National Center for Advancing Translational Sciences (NCATS), 2013).
Screen size: about 1,600 compounds; about 420 (26%) were called active. The inconclusive results got no clear call from the source; some entries with a clear call stand among them for comparison. Calls follow the shape of the dose curve; as a rule, active = well fitted inhibition curve with a large enough effect; inconclusive = small, poorly fitted or top-dose-only effect; inactive = flat fitted curve, though single readings scatter. A potency beside an inconclusive call is a rough fit, not a confirmed value.

experiment: qHTS for Inhibitors of TGF-b: Cytotox Counterscreen for Cherry Picks; details: HepG2 CAGA-GFP viability, ATP luminescence, 18 h, cells stimulated with TGF-beta, 500 pg/mL; activity, negative = cytotoxicity: at 46.1 µM (top of the series); also: nearly all actives have a fitted effect of over 70% in size
In short: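 Toxicity towards HepG2 CAGA-GFP cells is assessed with CellTiter-Glo luminescence following an 18 h, 37 °C treatment with compound in the presence of 500 pg/mL TGF-beta.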
Potency is read from the fitted curve at half-maximal effect.

| SMILES | Potency | activity, negative = cytotoxicity |
| --- | --- | --- |
| CN(C)CCCN(C(=O)CCOc1ccccc1)c1nc2ccc(F)cc2s1 | inconclusive: 29.1 µM [inhibitor, single point] | – |
| COc1ccc(OC)c(C2SCCN2S(=O)(=O)c2cccc(C(F)(F)F)c2)c1 (centres undefined) | – | inactive: -21.4% |
| O=C(c1ccc(F)cc1)C(CN1CCOCC1)c1ccccc1 (centres undefined) | active: 16.4 µM | – |
| O=C1C=C(N2CCN(c3ccccn3)CC2)C(=O)c2c(O)ccc(O)c21 | active: 9.2 µM | – |
| COc1ccccc1NC(=O)c1cc2cc(Br)ccc2cc1O | active: 8.2 µM | – |
| CCc1nc2ccc(C(=O)N3CCN(c4cccc(C(F)(F)F)c4)CC3)cc2nc1CC | – | inactive: -23.6% |
| CCCn1nc2cc(C(=O)NCCc3cccs3)ccc2c1OCC | – | inactive: -4.59% |
| CNC(=S)N/N=C/C1=CCC2CC1C2(C)C (centres undefined) | – | inactive: -8.49% |
| Cc1ccc(S(=O)(=O)N2CCN(C(=O)c3ccccc3Cc3ccccc3)CC2)c(C)c1 | inconclusive: 18.4 µM [inhibitor, single point] | – |
| COc1cccc(CNc2nc3cc(-c4ccc(C)cc4)sc3c(=O)n2C)c1OC | inconclusive: 20.6 µM [inhibitor, single point] | – |
| COc1ccc(C(=O)NN(C)c2nc(C(F)(F)F)nc3ccccc23)cc1 | – | inactive: -16.5% |
| CC1CCN(C(=O)c2[nH]cnc2C(=O)NCc2ccc(CNC(=O)OC(C)(C)C)cc2)CC1 | – | inactive: 6.13% |
| OCCCn1c(C(CO)Nc2nc(-c3ccc(Cl)cc3)cs2)nc2ccccc21 (centres undefined) | – | inactive: -28.6% |
| Cc1ccc(S(=O)(=O)Nc2ccccc2C(=O)Nc2nc(-c3ccc(F)cc3)cs2)cc1 | active: 5.8 µM | – |
| O=C(NCc1ccncc1)c1ccc2nc(Cc3ccccc3F)oc2c1 | – | inactive: -14.5% |
| O=S(=O)(c1ccc(NC(=S)NN=Cc2ccccc2O)cc1)N1CCCCC1 | – | inconclusive: -28.2% [inhibitor] |
| CCS(=O)(=O)c1ncc(Cl)c(C(=O)Nc2ccc(S(=O)(=O)N(C)c3ccccc3)cc2)n1 | active: 4.11 µM | – |
| NC(Cc1ccc(C(F)(F)F)cc1)c1csc(Nc2cnccn2)n1 (centres undefined) | inconclusive: 18.4 µM [inhibitor, single point] | – |
| CC1(C(=O)NCc2cccc3ccccc23)CCN1C(=O)C1(c2ccccc2)CCCC1 (centres undefined) | inconclusive: 20.6 µM [inhibitor, single point] | – |
| COc1ccccc1-n1cnc2cc(NCc3ccco3)ccc21 | – | inactive: -3.67% |

3 entries already listed, sorted by formula weight, low to high.

| SMILES | Potency | activity, negative = cytotoxicity |
| --- | --- | --- |
| COc1ccc(OC)c(C2SCCN2S(=O)(=O)c2cccc(C(F)(F)F)c2)c1 (centres undefined) | – | inactive: -21.4% |
| Cc1ccc(S(=O)(=O)N2CCN(C(=O)c3ccccc3Cc3ccccc3)CC2)c(C)c1 | inconclusive: 18.4 µM [inhibitor, single point] | – |
| CCS(=O)(=O)c1ncc(Cl)c(C(=O)Nc2ccc(S(=O)(=O)N(C)c3ccccc3)cc2)n1 | active: 4.11 µM | – |

The list goes on.

| SMILES | Potency | activity, negative = cytotoxicity |
| --- | --- | --- |
| O=C(Nc1cc(Sc2ccccn2)cc([N+](=O)[O-])c1)c1cccc(F)c1 | inconclusive: 20.6 µM [inhibitor, partial curve] | – |
| CN(CC(=O)Nc1cccc(F)c1)C(=O)c1cccc(S(=O)(=O)N2CC3(C)CC2CC(C)(C)C3)c1 (centres undefined) | – | inactive: -29.2% |
| O=S(=O)(Nc1ccc2c(c1)OCCO2)c1ccc2oc3ccccc3c2c1 | inconclusive: 18.4 µM [inhibitor, single point] | – |
| Cc1cc(C)cc(C(=O)N2CC(=O)Nc3ccccc32)c1 | – | inactive: 7.02% |
| COc1ccc([C@H]2CC(=O)C=C(c3ccc(Oc4ccccc4)cc3)C2)cc1OC | – | inactive: -20.9% |
| CCN(CC)S(=O)(=O)c1cccc(NC(=O)c2ccc(-n3nc(C)cc3C)cc2)c1 | – | inactive: -17.9% |
| O=C(COc1ccc(-c2nnc(N3CCCCC3)c3ccccc23)cc1)N1CCCCC1 | – | inactive: -20.3% |
| N#Cc1c(NC(=O)c2ccc([N+](=O)[O-])o2)sc2c1CCC2 | active: 9.2 µM | – |
| C=CC(=O)Nc1cccc(Oc2ccnc(Nc3ccc(N4CCN(C)CC4)cc3)n2)c1 | active: 23.1 µM | – |
| O=[N+]([O-])c1ccccc1S(=O)(=O)Nc1cccc2cccnc12 | inconclusive: 0.82 µM [inhibitor, full curve] | – |
| CN(C)S(=O)(=O)N1CCc2ccc(NC(=O)c3ccc(C(F)(F)F)cc3)cc2C1 | inconclusive: 18.4 µM [inhibitor, single point] | – |
| Cc1ccc(C2(c3ccccc3)NC(=O)N(CC(=O)NCc3ccccc3)C2=O)cc1C (centres undefined) | inconclusive: 20.6 µM [inhibitor, single point] | – |
| Cc1nc2ccc(S(=O)(=O)NCC(=O)Nc3cccc(F)c3)cc2s1 | – | inactive: 5.94% |
| Cc1onc(-c2c(F)cccc2Cl)c1C(=O)Nc1nnc(C(F)(F)F)s1 | inconclusive: 11.6 µM [inhibitor, partial curve] | – |
| CC(Nc1ccccc1CO)C(=O)Nc1cccc(Cl)c1Cl (centres undefined) | active: 2.06 µM | – |
| COc1cccc(Nc2nc(NCC3CCCO3)c3ccccc3n2)c1 (centres undefined) | inconclusive: 25.9 µM [inhibitor, single point] | – |
| COc1cc(OC)c2c(-c3cccc(-c4ccc(NC(C)=O)cc4)c3)cc(=O)oc2c1 | – | inactive: -14% |
| Cc1cccc(C)c1NS(=O)(=O)c1ccc(-c2cnc(C3CC3)o2)cc1 | inconclusive: 7.31 µM [inhibitor, partial curve] | – |
| O=C(COc1ccc(Cl)cc1Cl)NCCSc1ccc(Cl)cc1 | inconclusive: 29.1 µM [inhibitor, single point] | – |
| CCc1ccc(S(=O)(=O)Nc2c(NC3CCCCC3)c3ccccc3oc2=O)cc1 | – | inactive: -6.04% |

| SMILES | Potency | activity, negative = cytotoxicity |
| --- | --- | --- |
| COCCOC(=O)c1[nH]c2c(c1C)C(=O)CC(c1ccccc1)C2 (centres undefined) | – | inactive: -6.86% |
| CC(C)NC(=O)N(C)C[C@H]1Oc2ccc(NS(=O)(=O)c3ccc(Cl)cc3)cc2CC(=O)N([C@@H](C)CO)C[C@@H]1C | – | inactive: 3.28% |
| Cc1cccc(NC(=O)Nc2ccc(C#N)cc2)n1 | active: 8.2 µM | – |
| CN(C)S(=O)(=O)c1cc(NC(=O)CSc2nn(-c3ccc(Cl)cc3)c(=S)s2)ccc1Cl | inconclusive: 14.6 µM [inhibitor, partial curve] | – |
| CC1(C(=O)NCc2ccc3c(c2)OCO3)CCN1Cc1csc2ccccc12 (centres undefined) | active: 23.1 µM | – |
| CCOc1ccccc1-n1c(CNc2ccc(F)cc2)nnc1SCC(=O)NCc1ccco1 | – | inactive: -2.1% |
| CC[C@]12c3[nH]c4ccc(Cl)cc4c3CCN1C(=O)[C@@H](CC(=O)NCc1cccc(C(F)(F)F)c1)C[C@@H]2C(=O)N1CCN(C(=O)C2CC2)CC1 | inconclusive: 23.1 µM [inhibitor, single point] | – |
| Cc1ccc(S(=O)(=O)Nc2cccc3cccnc23)c([N+](=O)[O-])c1 | inconclusive: 0.58 µM [inhibitor, full curve, poor fit] | – |
| CC(C)C[C@H]1CNC(=S)N1C[C@H]1CCCN1C[C@H](Cc1ccc(O)cc1)N1C[C@H](CC(C)C)N(CC2CCCCCC2)C1=S | inconclusive: 14.6 µM [inhibitor, partial curve] | – |
| C=CCC[C@H](Cc1ccc(F)cc1)C(=O)OC[C@@H](Cc1c[nH]c2ccccc12)NC(=O)[C@H](CC=C)CC(=O)N(CCO)Cc1ccccc1 | inconclusive: 29.1 µM [inhibitor, single point] | – |
| COc1ccc(C2CC(c3c(-c4ccccc4)c4cc(Cl)ccc4[nH]c3=O)=NN2S(C)(=O)=O)cc1OC (centres undefined) | – | inactive: -1.31% |
| O=C(Nc1c(Cl)ccc2nsnc12)c1ccc([N+](=O)[O-])o1 | inconclusive: 29.1 µM [inhibitor, single point] | – |
| CCCCCC(=O)Nc1cccc(C2=NOC3(C2)C[C@H](C(N)=O)N(C(=O)c2ccccc2C(=O)c2ccccc2)C3)c1 (some centres undefined) | – | inactive: -9.65% |
| O=S(Cc1ccc(Br)cc1)Cc1nnc(SCc2ccc(Br)cc2)n1-c1ccccc1 (centres undefined) | inconclusive: 29.1 µM [inhibitor, single point] | – |
| O=[N+]([O-])c1c(Nc2ccc(O)cc2)cc(Cl)c2nonc12 | active: 3.66 µM | – |
| Oc1c(CN2CCCCC2)cc(Br)c2cccnc12 | inconclusive: 1.84 µM [inhibitor, full curve, poor fit] | – |
| Cc1cc(N2CCN(c3ccccc3)CC2)n2cc(-c3ccccc3)nc2n1 | – | inactive: -7.85% |
| COc1ccc(S(=O)(=O)N2c3ccc(F)cc3CCC2C)cc1 (centres undefined) | – | inactive: -6.91% |
| NC(=O)CC(NC(=O)c1ccccc1)c1ccc(N2CCC(Cc3ccccc3)CC2)c([N+](=O)[O-])c1 (centres undefined) | inconclusive: 9.2 µM [inhibitor, partial curve] | – |
